Measurements taken from the supplement of paper PMC10849652.
The other results are listed elsewhere or left out.

Protein sequences, listed by entry. Tags and fused reporters are not part of them. Lines headed by an entry give the natural chain unless they say otherwise; changes in a name come on top.
UniProt Q9BSK0: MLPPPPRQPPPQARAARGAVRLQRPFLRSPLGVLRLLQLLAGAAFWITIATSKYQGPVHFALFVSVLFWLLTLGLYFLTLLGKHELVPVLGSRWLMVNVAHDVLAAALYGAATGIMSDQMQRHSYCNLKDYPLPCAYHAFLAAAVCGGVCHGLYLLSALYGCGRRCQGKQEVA
UniProt Q9NU23: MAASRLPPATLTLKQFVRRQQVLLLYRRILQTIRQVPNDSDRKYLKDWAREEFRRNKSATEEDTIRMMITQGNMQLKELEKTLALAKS
UniProt P46821: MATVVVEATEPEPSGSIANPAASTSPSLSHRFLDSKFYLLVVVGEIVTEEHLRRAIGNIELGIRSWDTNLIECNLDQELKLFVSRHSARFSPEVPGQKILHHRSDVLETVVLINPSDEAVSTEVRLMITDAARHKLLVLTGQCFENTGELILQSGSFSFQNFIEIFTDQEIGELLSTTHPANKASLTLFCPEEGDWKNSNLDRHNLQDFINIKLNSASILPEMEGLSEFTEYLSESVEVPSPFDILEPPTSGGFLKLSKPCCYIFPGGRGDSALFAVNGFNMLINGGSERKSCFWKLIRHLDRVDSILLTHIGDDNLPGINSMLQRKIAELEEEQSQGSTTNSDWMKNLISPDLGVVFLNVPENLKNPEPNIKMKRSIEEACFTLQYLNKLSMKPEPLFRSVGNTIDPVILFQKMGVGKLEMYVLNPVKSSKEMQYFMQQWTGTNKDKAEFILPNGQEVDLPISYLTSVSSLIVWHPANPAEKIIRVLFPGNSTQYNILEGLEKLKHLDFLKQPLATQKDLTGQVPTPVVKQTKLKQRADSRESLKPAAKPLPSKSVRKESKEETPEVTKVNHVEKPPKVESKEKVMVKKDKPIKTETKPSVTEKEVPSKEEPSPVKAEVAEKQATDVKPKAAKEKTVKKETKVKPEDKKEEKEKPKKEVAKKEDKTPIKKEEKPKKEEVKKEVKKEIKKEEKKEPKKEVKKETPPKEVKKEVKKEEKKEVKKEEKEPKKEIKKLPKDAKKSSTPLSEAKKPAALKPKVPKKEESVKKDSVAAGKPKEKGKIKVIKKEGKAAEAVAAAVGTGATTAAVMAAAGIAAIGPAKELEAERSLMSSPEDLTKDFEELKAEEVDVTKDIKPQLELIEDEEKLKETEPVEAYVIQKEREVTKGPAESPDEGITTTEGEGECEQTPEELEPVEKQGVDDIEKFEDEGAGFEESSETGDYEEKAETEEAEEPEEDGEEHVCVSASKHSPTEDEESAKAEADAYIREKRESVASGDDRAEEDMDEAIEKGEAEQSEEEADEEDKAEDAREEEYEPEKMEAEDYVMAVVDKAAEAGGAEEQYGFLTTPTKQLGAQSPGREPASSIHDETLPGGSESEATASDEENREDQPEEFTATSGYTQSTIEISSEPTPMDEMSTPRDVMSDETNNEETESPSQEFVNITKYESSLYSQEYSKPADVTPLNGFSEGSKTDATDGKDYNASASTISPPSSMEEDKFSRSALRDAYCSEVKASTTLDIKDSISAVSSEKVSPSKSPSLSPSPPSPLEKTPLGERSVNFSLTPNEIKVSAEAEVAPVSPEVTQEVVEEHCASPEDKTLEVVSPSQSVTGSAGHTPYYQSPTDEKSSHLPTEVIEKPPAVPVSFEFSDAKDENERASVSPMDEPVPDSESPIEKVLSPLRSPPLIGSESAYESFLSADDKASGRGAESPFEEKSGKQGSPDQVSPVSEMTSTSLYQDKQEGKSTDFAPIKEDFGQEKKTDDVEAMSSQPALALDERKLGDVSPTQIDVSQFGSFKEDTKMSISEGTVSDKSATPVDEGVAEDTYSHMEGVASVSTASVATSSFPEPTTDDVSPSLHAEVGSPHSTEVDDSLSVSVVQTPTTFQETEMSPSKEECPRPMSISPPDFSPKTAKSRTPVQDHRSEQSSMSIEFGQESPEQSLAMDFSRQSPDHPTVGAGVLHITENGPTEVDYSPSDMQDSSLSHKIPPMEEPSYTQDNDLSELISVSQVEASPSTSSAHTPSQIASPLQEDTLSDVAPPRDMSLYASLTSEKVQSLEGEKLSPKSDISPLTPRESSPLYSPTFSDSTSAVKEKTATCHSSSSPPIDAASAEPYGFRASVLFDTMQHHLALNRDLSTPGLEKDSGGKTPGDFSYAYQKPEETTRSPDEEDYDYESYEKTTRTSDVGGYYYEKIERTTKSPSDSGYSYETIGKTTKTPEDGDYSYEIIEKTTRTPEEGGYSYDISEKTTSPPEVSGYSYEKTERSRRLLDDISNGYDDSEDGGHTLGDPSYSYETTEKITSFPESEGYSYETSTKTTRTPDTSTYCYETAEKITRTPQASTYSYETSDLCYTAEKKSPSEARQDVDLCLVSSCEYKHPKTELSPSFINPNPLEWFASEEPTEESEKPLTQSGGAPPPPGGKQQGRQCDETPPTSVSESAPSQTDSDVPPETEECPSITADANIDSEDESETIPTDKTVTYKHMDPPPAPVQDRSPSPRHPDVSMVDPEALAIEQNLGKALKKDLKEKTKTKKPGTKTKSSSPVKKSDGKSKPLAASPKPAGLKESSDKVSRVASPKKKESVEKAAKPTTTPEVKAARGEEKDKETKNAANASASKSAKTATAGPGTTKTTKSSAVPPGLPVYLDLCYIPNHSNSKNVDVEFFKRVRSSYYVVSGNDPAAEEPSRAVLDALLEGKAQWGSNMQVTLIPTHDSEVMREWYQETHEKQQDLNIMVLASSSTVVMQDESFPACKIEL
UniProt Q96QZ7: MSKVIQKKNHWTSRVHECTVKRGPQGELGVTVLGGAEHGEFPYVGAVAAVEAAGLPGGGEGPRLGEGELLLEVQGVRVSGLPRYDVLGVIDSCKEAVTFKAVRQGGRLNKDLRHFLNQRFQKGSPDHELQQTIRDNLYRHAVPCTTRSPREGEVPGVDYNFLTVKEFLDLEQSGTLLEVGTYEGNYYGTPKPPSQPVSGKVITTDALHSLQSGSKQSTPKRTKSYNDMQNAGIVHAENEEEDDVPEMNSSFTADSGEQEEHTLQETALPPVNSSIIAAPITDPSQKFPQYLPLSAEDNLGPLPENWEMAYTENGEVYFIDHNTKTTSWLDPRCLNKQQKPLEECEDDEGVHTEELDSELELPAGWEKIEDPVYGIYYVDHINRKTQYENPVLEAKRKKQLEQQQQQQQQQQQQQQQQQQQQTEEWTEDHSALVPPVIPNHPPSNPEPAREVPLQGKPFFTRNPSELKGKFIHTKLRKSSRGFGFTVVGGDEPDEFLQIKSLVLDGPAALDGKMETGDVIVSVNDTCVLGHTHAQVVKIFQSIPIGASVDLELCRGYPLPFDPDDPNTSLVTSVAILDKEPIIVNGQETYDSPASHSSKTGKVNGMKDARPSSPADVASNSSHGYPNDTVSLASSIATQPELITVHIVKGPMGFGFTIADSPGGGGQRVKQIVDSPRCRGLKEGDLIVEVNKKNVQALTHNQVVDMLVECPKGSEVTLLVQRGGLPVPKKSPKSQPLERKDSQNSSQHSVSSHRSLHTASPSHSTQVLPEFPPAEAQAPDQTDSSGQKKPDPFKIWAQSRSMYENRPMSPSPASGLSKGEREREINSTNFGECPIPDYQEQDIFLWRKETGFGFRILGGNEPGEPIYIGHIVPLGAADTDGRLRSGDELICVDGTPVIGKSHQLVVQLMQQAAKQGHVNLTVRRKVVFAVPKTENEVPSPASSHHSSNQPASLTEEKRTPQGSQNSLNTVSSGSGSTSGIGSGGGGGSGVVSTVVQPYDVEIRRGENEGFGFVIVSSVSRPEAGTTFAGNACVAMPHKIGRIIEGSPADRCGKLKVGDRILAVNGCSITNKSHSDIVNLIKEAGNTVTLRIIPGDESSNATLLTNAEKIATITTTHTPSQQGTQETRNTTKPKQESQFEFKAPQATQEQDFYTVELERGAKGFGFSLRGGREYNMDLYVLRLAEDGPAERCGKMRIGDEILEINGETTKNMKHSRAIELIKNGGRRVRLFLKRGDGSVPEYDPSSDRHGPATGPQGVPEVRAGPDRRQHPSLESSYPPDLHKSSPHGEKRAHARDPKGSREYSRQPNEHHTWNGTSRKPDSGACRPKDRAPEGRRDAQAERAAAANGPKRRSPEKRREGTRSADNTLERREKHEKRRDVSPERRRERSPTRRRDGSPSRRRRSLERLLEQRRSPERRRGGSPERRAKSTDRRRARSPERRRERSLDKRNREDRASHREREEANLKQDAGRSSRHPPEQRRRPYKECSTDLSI
UniProt Q9UPY8, whole entry, looked up: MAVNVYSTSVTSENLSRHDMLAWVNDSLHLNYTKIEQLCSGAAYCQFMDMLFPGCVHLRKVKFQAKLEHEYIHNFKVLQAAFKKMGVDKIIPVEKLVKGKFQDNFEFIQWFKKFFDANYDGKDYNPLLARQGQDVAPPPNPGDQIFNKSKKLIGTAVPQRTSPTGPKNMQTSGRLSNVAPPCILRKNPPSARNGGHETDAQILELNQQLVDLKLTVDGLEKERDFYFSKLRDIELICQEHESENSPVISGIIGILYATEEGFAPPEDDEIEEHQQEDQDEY
UniProt O95372: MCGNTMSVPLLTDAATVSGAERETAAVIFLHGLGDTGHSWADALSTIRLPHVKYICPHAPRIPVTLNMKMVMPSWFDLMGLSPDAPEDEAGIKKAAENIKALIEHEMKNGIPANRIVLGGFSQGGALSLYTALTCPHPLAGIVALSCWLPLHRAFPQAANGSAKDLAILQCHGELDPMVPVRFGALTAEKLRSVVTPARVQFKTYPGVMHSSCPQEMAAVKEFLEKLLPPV
UniProt P53778: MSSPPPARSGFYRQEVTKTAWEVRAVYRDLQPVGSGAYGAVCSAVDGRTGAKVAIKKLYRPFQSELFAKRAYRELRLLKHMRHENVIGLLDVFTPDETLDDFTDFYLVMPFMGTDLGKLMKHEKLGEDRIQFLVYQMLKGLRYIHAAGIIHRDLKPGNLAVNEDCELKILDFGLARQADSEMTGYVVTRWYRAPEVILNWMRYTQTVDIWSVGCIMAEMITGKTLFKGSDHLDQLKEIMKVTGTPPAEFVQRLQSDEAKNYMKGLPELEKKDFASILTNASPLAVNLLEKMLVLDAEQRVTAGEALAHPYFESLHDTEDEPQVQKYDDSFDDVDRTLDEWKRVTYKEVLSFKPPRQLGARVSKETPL
UniProt Q8IZL2, whole entry, looked up: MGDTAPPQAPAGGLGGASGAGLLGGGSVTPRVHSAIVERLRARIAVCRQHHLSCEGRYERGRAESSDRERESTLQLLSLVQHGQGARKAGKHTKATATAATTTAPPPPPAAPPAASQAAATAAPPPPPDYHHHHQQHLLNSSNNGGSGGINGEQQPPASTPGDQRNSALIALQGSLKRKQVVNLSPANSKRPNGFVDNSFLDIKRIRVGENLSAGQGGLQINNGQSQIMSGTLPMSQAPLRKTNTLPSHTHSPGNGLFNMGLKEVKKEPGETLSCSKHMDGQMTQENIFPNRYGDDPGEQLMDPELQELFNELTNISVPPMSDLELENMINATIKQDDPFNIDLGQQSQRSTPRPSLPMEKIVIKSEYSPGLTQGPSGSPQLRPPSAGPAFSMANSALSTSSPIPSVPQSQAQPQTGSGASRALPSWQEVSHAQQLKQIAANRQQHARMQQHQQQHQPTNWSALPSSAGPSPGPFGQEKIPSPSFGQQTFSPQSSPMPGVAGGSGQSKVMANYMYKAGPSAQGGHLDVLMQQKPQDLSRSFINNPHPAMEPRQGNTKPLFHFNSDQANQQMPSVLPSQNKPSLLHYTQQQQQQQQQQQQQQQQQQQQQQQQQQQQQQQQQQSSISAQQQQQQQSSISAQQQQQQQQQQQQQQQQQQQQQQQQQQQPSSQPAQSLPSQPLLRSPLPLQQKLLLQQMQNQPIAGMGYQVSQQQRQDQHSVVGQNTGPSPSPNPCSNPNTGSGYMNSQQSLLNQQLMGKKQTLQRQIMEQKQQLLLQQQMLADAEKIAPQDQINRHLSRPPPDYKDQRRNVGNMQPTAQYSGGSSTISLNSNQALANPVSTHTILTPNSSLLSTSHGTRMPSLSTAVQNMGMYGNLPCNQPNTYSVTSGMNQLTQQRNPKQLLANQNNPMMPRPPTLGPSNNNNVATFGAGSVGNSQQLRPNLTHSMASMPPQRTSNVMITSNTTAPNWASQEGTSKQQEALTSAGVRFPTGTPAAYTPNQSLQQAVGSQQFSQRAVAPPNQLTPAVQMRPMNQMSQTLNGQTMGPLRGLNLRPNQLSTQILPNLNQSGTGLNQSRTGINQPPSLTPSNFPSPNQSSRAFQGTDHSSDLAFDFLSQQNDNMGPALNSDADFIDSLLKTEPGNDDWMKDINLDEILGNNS

Assays:
Assay in all cases: log2 fold change, soluble protein after heating vs DMSO (PISA); higher = thermal stabilisation; K562 lysate, 10 uM; active = over 0.2 and 3.5 SD of the protein, either way, in both replicates (recomputed)
[1] = compound: C1=CC=C(C=C1)[C@H](COC2=CC3=C(C=C2)NC(=O)N3)NC(=O)C4=CC=CN(C4=O)CC5=CC(=C(C=C5)F)F
Summary of the method: (§1)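 Quantification was by TMTpro 16plex LC-MS/MS with equalised channel sums, applied to the supernatant after 21,000xg for 90 min. Samples were crude K562 extract at 1 mg/mL protein in PBS pH 7.4 with 1 mM MgCl2, treated with 10 μM compound for 30 min, heated for 3 min across 48°C-58°C, pooled and brought to 0.5% NP-40 at 4°C. Values are log-two fold changes in thermal stability relative to solvent controls, from duplicates.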

[2] = compound: CC1=C(SC2=C1C(=N[C@H](C3=NN=C(N32)C)CC(=O)N)C4=CC=C(C=C4)Cl)C
Summary of the method: as §1

[3] = compound: CC1=C2C(=CC=C1)N=C(N(C2=O)C3=CC=CC=C3C)CN4C=NC5=C(N=CN=C54)N
Summary of the method: as §1

[4] = compound: Cc1sc2c(c1C)C(c1ccc(Cl)cc1)=N[C@@H](CC(=O)OC(C)(C)C)c1nnc(C)n1-2
Summary of the method: as §1

[5] = compound: c1ccc([C@@H]2C[C@H]2NC2CCNCC2)cc1
Summary of the method: as §1

Measured: log2 fold change

LYPLAL1 (UniProt Q5VWZ2)
inactive: [1] -0.077 | [2] 0.011 | [3] 0.021 | [4] -0.002 | [5] 0.007

MARVELD1 (UniProt Q9BSK0)
inactive: [1] -0.146 | [2] -0.029 | [3] 0.317 | [4] -0.178 | [5] -0.083

LTV1 (UniProt Q96GA3)
inactive: [1] 0.03 | [2] 0.003 | [3] 0.021 | [4] 0.052 | [5] 0.038

LYRM2 (UniProt Q9NU23)
inactive: [1] -0.011 | [2] 0.018 | [3] -0.019 | [4] -0.032 | [5] -0.04

MAP3K2 (UniProt Q9Y2U5)
inactive: [1] 0.034 | [2] -0.006 | [3] 0.126 | [4] -0.098 | [5] 0.042

MAP3K20 isoform 2 (UniProt Q9NYL2)
inactive: [1] -0.066 | [2] -0.006 | [3] 0.106 | [4] 0.015 | [5] -0.206

MARK3 (UniProt P27448)
inactive: [1] 0.02 | [2] 0.069 | [3] 0.118 | [4] -0.06 | [5] 0.053

MARS (UniProt P56192)
inactive: [1] -0.019 | [2] 0.013 | [3] 0.011 | [4] -0.003 | [5] 0.039

MARK2 (UniProt E9PC69)
inactive: [1] 0.003 | [2] -0.004 | [3] 0.071 | [4] -0.043 | [5] 0.035

MAP3K20 (UniProt Q9NYL2)
inactive: [1] 0.024 | [2] 0.023 | [3] -0.04 | [4] 0.118 | [5] -0.011

MAK16 (UniProt Q9BXY0)
inactive: [1] -0.02 | [2] 0.001 | [3] 0.02 | [4] 0.015 | [5] -0.025

MAP2K5 (UniProt Q13163)
inactive: [1] -0.046 | [2] 0.155 | [3] -0.045 | [4] -0.407 | [5] -0.02

MAN1B1 (UniProt Q9UKM7)
inactive: [1] 0.062 | [2] -0.023 | [3] 0.044 | [4] 0.003 | [5] 0.01

MAPK6 (UniProt Q16659)
inactive: [1] 0.062 | [2] -0.015 | [3] -0.016 | [4] -0.001 | [5] -0.037

MAP3K7 (UniProt O43318)
inactive: [1] 0.015 | [2] 0.003 | [3] 0.006 | [4] -0.002 | [5] -0.012

MAP4 (UniProt E7EVA0)
inactive: [1] -0.024 | [2] -0.002 | [3] 0.037 | [4] -0.018 | [5] -0.041

MAN2A2 (UniProt P49641)
inactive: [1] -0.034 | [2] -0.055 | [3] -0.003 | [4] -0.009 | [5] 0.004

MAIP1 (UniProt Q8WWC4)
inactive: [1] -0.077 | [2] 0.032 | [3] -0.019 | [4] -0.019 | [5] -0.005

MANEA (UniProt Q5SRI9)
inactive: [1] 0.146 | [2] -0.009 | [3] 0.044 | [4] 0.029 | [5] -0.161

MAP7D3 (UniProt Q8IWC1)
inactive: [1] 0.056 | [2] 0.057 | [3] -0.091 | [4] 0.015 | [5] -0.05

MAP1A (UniProt P78559)
inactive: [1] 0.018 | [2] 0.023 | [3] -0.01 | [4] -0.01 | [5] -0.007

MAPRE2 (UniProt Q15555)
inactive: [1] 0.037 | [2] 0.013 | [3] -0.046 | [4] 0.009 | [5] 0.046

LZTS1 (UniProt Q9Y250)
inactive: [1] -0.082 | [2] 0.049 | [3] 0.065 | [4] -0.628 | [5] 0.324

MAPKAPK3 (UniProt Q16644)
inactive: [1] 0.03 | [2] -0.031 | [3] -0.005 | [4] 0.009 | [5] 0.019

LUC7L (UniProt Q9NQ29)
inactive: [1] 0.011 | [2] 0.013 | [3] 0.006 | [4] 0.003 | [5] 0.055

MAP1B (UniProt P46821)
inactive: [1] 0.02 | [2] 0.004 | [3] -0.02 | [4] -0.009 | [5] -0.018

MAGEC2 (UniProt Q9UBF1)
inactive: [1] -0.006 | [2] -0.021 | [3] -0.03 | [4] -0.025 | [5] -0.052

MAGI1 isoform 6 (UniProt Q96QZ7)
inactive: [1] -0.001 | [2] -0.002 | [3] 0.018 | [4] 0.014 | [5] 0.01

MAPRE3 (UniProt Q9UPY8)
inactive: [1] -0.039 | [2] -0.003 | [3] -0.029 | [4] 0.081 | [5] 0.139

LYPLA2 (UniProt O95372)
inactive: [1] -0.14 | [2] -0.069 | [3] 0.099 | [4] 0.041 | [5] 0.127

MAGI3 isoform 1 (UniProt Q5TCQ9)
inactive: [1] 0.115 | [2] 0.025 | [3] 0.097 | [4] -0.077 | [5] 0.001

MAPK12 (UniProt P53778)
inactive: [1] 0.029 | [2] 0.068 | [3] -0.015 | [4] -0.002 | [5] 0.307

MAGEC1 (UniProt O60732)
inactive: [1] -0.013 | [2] 0.014 | [3] 0.007 | [4] -0.008 | [5] 0.013

MAP7D1 (UniProt Q3KQU3)
inactive: [1] 0.054 | [2] -0.02 | [3] -0.082 | [4] -0.004 | [5] 0.013

MAP7 (UniProt Q14244)
inactive: [1] 0.056 | [2] -0.082 | [3] 0.061 | [4] 0.06 | [5] -0.022

MACO1 (UniProt Q8N5G2)
inactive: [1] -0.039 | [2] -0.044 | [3] 0.125 | [4] -0.04 | [5] 0.092

LYRM7 (UniProt Q5U5X0)
inactive: [1] 0.036 | [2] 0.06 | [3] -0.022 | [4] -0.002 | [5] 0.037

MANBA (UniProt O00462)
inactive: [1] -0.004 | [2] 0.007 | [3] 0.049 | [4] -0.088 | [5] -0.02

MAPK1 (UniProt P28482)
inactive: [1] 0.045 | [2] -0.006 | [3] -0.016 | [4] 0.039 | [5] 0.012

MAP4 (UniProt P27816)
inactive: [1] 0.027 | [2] 0.012 | [3] -0.012 | [4] -0.027 | [5] -0.043

MAP11 (UniProt Q8WVR3)
inactive: [1] -0.103 | [2] 0 | [3] -0.006 | [4] 0.063 | [5] -0.03

MACF1, A0A0A6YYJ5
inactive: [1] -0.048 | [2] -0.032 | [3] 0.086 | [4] 0.004 | [5] 0.004

MACROD1 (UniProt Q9BQ69)
inactive: [1] 0.048 | [2] 0.022 | [3] 0.004 | [4] 0.049 | [5] 0.075

MAP4K4 isoform 3 (UniProt O95819)
inactive: [1] 0.022 | [2] 0.029 | [3] 0.015 | [4] -0.021 | [5] 0.083

LYSMD2 (UniProt Q8IV50)
inactive: [1] 0.067 | [2] -0.025 | [3] -0.077 | [4] 0.003 | [5] -0.035

LUZP1 (UniProt Q86V48)
inactive: [1] 0.039 | [2] -0.113 | [3] 0.032 | [4] 0.007 | [5] -0.056

LTN1 isoform 3 (UniProt O94822)
inactive: [1] -0.059 | [2] 0 | [3] 0.027 | [4] -0.025 | [5] 0.04

M6PR (UniProt P20645)
inactive: [1] -0.015 | [2] 0.009 | [3] -0.053 | [4] -0.038 | [5] -0.088

MAML2 (UniProt Q8IZL2)
inactive: [1] -0.045 | [2] -0.101 | [3] 0.012 | [4] -0.111 | [5] -0.071

MAP4K2 (UniProt Q12851)
inactive: [1] -0.088 | [2] 0.053 | [3] 0.022 | [4] -0.13 | [5] -0.087

MAP4K5 (UniProt Q9Y4K4)
inactive: [1] 0.069 | [2] 0.063 | [3] -0.079 | [4] -0.022 | [5] -0.1

MACC1 (UniProt Q6ZN28)
inactive: [1] -0.009 | [2] 0.004 | [3] 0.016 | [4] -0.125 | [5] -0.088

MAPKAPK2 (UniProt P49137)
inactive: [1] 0.043 | [2] 0.008 | [3] -0.053 | [4] 0.004 | [5] -0.051
